Test results from paper PMC8616899.
Results are given in words; binding and its absence hold for the method and conditions named. For some assays here: In cells and extracts the contact can be indirect. Some entries that bind do so weakly or less than the wild type. For some assays here: Where a sequence is shown, tags or fusion partners need not be part of it.

By UniProt entry, the sequences of proteins in these tests, tags left out.
UniProt Q96G97: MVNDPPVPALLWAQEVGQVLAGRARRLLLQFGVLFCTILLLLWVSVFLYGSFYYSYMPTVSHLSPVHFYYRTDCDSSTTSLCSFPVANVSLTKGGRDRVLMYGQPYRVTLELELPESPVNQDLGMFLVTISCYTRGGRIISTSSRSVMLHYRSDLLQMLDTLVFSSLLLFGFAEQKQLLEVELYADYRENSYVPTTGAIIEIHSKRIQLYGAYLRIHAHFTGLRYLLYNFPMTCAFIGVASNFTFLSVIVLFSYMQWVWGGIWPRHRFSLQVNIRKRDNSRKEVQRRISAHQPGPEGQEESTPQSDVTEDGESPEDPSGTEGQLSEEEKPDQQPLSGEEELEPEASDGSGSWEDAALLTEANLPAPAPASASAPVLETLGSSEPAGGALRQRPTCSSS

Legend:
[1] = biological target: T1, GPAT4 (construct of the control co-immunoprecipitation, Supplementary Fig. 5b) (UniProt Q86UL3); test: co-IP; control co-IP 'under the same conditions' as the AGPAT2-CDS1/2 co-IP (Supplementary Fig. 5b); tags and bait not shown
T1 sequence: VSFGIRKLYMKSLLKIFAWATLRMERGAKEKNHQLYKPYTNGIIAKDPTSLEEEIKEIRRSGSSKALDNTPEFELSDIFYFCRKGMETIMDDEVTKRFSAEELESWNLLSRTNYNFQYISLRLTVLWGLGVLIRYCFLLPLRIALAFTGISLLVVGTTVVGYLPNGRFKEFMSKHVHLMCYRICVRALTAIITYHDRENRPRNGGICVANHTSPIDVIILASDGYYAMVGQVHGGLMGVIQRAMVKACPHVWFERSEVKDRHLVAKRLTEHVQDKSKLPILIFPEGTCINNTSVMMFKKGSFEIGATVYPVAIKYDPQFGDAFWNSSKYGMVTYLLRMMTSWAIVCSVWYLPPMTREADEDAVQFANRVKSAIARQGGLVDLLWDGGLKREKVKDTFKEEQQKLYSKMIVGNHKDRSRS

[2] = biological target: T2, HA-CDS1 (human CDP-diacylglycerol synthase 1, HA-tagged) (human) (UniProt Q92903); test: co-IP; transfected HEK293E lysates (1 mg) with HA-agarose beads, 4 °C, 16 h; 25 mM HEPES pH 7.4, 150 mM NaCl, 1 mM EDTA, 10% glycerol, 1% DDM; washed with 25 mM HEPES pH 7.4, 150 mM NaCl, 0.1% NP-40; Western blot
T2 sequence: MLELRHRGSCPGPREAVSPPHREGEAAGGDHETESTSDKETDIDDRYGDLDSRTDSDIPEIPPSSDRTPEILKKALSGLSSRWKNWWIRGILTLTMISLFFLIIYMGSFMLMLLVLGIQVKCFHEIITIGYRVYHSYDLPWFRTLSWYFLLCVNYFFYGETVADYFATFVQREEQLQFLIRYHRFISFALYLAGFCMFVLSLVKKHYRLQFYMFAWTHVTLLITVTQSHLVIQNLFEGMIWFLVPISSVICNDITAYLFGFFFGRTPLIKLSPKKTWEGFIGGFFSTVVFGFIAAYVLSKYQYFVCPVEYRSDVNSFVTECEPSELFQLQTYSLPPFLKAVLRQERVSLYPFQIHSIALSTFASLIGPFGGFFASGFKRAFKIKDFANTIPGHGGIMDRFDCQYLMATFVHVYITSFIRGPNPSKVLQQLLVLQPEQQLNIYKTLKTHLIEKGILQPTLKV

[3] = biological target: T3, HA-CDS2 (human CDP-diacylglycerol synthase 2, HA-tagged) (human) (UniProt O95674); test: as above
T3 sequence: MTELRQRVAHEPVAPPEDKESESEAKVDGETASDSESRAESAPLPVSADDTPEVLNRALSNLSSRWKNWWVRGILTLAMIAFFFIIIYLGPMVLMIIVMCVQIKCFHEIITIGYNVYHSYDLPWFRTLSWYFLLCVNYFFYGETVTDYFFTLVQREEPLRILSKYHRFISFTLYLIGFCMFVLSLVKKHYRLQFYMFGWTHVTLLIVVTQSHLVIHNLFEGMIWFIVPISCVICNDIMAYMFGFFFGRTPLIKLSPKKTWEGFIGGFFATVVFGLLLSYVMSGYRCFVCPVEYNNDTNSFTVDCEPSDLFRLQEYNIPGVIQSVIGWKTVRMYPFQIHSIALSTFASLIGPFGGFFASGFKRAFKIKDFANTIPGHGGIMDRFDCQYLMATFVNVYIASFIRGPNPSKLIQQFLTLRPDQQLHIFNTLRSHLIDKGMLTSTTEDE

[4] = biological target: T4, Flag-CDS1 (full-length human CDS1 with an N-terminal Flag tag) (human) (UniProt Q92903); test: two-step affinity co-purification (anti-Flag, then Strep-Tactin); Flag-CDS1 or Flag-CDS2 co-expressed with AGPAT2-Strep in HEK293F; membranes solubilised with 1% GDN; anti-Flag G1 resin, Flag peptide elution, then Strep-Tactin resin, biotin elution; 25 mM Tris pH 8.0, 150 mM NaCl, 0.02% GDN; SDS-PAGE, Coomassie blue
T4 sequence: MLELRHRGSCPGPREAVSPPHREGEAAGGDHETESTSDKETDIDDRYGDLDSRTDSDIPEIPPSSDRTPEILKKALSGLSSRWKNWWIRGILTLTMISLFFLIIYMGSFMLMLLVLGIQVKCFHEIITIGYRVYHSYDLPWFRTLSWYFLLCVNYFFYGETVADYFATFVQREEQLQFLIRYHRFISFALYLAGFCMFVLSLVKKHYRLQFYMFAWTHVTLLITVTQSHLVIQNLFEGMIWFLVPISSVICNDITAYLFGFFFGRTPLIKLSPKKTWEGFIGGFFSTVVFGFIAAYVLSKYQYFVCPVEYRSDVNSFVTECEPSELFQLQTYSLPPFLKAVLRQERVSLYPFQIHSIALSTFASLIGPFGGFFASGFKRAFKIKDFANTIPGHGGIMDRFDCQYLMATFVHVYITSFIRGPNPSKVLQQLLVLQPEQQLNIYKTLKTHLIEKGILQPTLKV

[5] = biological target: T5, Flag-CDS2 (full-length human CDS2 with an N-terminal Flag tag) (human) (UniProt O95674); test: as above
T5 sequence: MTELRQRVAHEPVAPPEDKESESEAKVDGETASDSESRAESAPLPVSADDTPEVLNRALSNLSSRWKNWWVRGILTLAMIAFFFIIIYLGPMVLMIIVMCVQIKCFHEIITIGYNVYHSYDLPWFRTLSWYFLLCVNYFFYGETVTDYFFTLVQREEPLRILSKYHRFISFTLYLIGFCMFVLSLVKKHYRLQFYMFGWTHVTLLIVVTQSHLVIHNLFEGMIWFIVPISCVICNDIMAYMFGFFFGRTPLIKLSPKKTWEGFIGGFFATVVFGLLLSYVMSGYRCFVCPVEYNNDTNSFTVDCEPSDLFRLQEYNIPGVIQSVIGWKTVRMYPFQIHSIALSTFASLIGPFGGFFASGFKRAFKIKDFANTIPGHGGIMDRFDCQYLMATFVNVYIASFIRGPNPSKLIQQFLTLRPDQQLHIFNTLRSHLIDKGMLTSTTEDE

[6] = biological target: T6, CDS2-mScarlet (endogenous CDS2 tagged at its genomic locus) (human (endogenous in HeLa)) (UniProt O95674); test: co-IP; HeLa cells with AGPAT2-sfGFP and CDS2-mScarlet knocked in at their genomic loci (DKI), single knock-in (SKI) as control; which of the two was precipitated is not told
T6 sequence: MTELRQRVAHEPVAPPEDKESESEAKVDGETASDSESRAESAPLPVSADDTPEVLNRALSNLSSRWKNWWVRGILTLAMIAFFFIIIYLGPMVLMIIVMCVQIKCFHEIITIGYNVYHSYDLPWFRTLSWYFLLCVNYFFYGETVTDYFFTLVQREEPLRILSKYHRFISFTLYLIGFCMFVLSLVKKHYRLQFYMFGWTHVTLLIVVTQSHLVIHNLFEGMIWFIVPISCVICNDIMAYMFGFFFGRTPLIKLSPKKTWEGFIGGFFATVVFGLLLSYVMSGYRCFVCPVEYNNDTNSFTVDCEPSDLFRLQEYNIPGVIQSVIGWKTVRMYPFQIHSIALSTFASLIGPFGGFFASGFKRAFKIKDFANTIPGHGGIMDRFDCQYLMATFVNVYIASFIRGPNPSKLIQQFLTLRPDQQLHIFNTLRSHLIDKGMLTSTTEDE

“seipin (construct of the control co-immunoprecipitation, Supplementary Fig. 5b) (from UniProt Q96G97 1-398)” was tested, and the binding [1] was “binds”.

B1: AGPAT2-GFP (human 1-acylglycerol-3-phosphate O-acyltransferase 2, GFP-tagged) (enzyme, UniProt O15120 24-278)
chain: AEFYAKVALYCALCFTVSAVASLVCLLRHGGRTVENMSIIGWFVRSFKYFYGLRFEVRDPRRLQEARPCVIVSNHQSILDMMGLMEVLPERCVQIAKRELLFLGPVGLIMYLGGVFFINRQRSSTAMTVMADLGERMVRENLKVWIYPEGTRNDNGDLLPFKKGAFYLAVQAQVPIVPVVYSSFSSFYNTKKKFFTSGTVTVQVLEAIPTSGLTAADVPALVDTCHRAMRTTFLHISKTPQENGATAGSGVQPAQ
For B1, the binding [2] was “binds” and the binding [3] was “binds”.

B2: AGPAT2-Strep (full-length human AGPAT2 with a C-terminal Strep tag) (enzyme, UniProt O15120 24-278)
chain: AEFYAKVALYCALCFTVSAVASLVCLLRHGGRTVENMSIIGWFVRSFKYFYGLRFEVRDPRRLQEARPCVIVSNHQSILDMMGLMEVLPERCVQIAKRELLFLGPVGLIMYLGGVFFINRQRSSTAMTVMADLGERMVRENLKVWIYPEGTRNDNGDLLPFKKGAFYLAVQAQVPIVPVVYSSFSSFYNTKKKFFTSGTVTVQVLEAIPTSGLTAADVPALVDTCHRAMRTTFLHISKTPQENGATAGSGVQPAQ
With B2 the binding [4] was “binds” and the binding [5] was “binds”.

B3: AGPAT2-sfGFP, longer isoform (endogenous AGPAT2 tagged at its genomic locus) (enzyme, UniProt O15120 24-278)
chain: AEFYAKVALYCALCFTVSAVASLVCLLRHGGRTVENMSIIGWFVRSFKYFYGLRFEVRDPRRLQEARPCVIVSNHQSILDMMGLMEVLPERCVQIAKRELLFLGPVGLIMYLGGVFFINRQRSSTAMTVMADLGERMVRENLKVWIYPEGTRNDNGDLLPFKKGAFYLAVQAQVPIVPVVYSSFSSFYNTKKKFFTSGTVTVQVLEAIPTSGLTAADVPALVDTCHRAMRTTFLHISKTPQENGATAGSGVQPAQ
B3 was tested, and the binding [6] was “binds”.

B4: AGPAT2-mCherry (human AGPAT2, mCherry-tagged) (enzyme, UniProt O15120 24-278)
chain: AEFYAKVALYCALCFTVSAVASLVCLLRHGGRTVENMSIIGWFVRSFKYFYGLRFEVRDPRRLQEARPCVIVSNHQSILDMMGLMEVLPERCVQIAKRELLFLGPVGLIMYLGGVFFINRQRSSTAMTVMADLGERMVRENLKVWIYPEGTRNDNGDLLPFKKGAFYLAVQAQVPIVPVVYSSFSSFYNTKKKFFTSGTVTVQVLEAIPTSGLTAADVPALVDTCHRAMRTTFLHISKTPQENGATAGSGVQPAQ
For B4, the binding [2] was “binds” and the binding [3] was “binds”.
